# Test results: PubChem BioAssay AID2685 (National Center for Advancing Translational Sciences (NCATS), 2010)
# The list shows a part of the results. These are further read-outs of the screen, such as a control signal, another cell line or another target. No call is given for them. Compounds called inactive in the main read-out are mostly missing here. Words in brackets tell the shape of the fitted curve; partial curves, single points and poor fits give uncertain potencies.
# Assay: qHTS Assay for Lipid Storage Modulators in Drosophila S3 Cells;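 for cell number change: cells counted by Cell Tracker Red CMTPX staining in the red channel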
# Conditions: BODIPY lipid droplet fluorescence, 18-24 h; for cell number change: measured here: cell count max response, cells fed with added oleic acid
# How it was run: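 Drosophila S3 cells got compounds at several concentrations plus oleic acid (400 uM solution). Laser-scanning cytometry with 488 nm excitation read lipid droplets at 500-530 nm and cells at 575-640 nm. Percent activity was relative to 20 uM Triacsin C.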
# [1] = measured here: lipid fluorescence (Fed channel) AC50, cells fed with added oleic acid
# [2] = measured here: cell number channel AC50, cells fed with added oleic acid
SMILES,cell number change,AC50 [1],AC50 [2]
O=C(COC(=O)c1ccccc1NC(=O)c1ccccc1)c1ccc([N+](=O)[O-])cc1,-2.84%,"29.1 µM [falling, partial curve]",
Brc1c(OCCOCCn2cncn2)ccc2ccccc12,314%,"16.4 µM [rising, partial curve]","18.4 µM [rising, partial curve]"
O=C(c1ccco1)N1CCN(c2ccc(N3CCCCC3)nn2)CC1,-5.43%,"11.6 µM [falling, partial curve, poor fit]","3.66 µM [falling, single point]"
CC(C)(C)C1CCC2(CC1)NC(CO)(CO)CO2 (stereo unspecified),-15.4%,"1.46 µM [falling, partial curve]",
COC(=O)C1C2C=CC3(CN(C(C)C)C(=O)C13)O2 (stereo unspecified),37.9%,"29.1 µM [rising, single point]","0.92 µM [rising, full curve, poor fit]"
CC(CN1CCCCC1)OC(=O)c1ccccc1F (stereo unspecified),20.7%,"29.1 µM [falling, single point]",
COc1ccc(S(=O)(=O)NNC(N)=S)cc1,21.2%,"23.1 µM [falling, partial curve, poor fit]",
Cc1ccc(NC(=O)C(C)c2ccc(-c3ccccc3)c(F)c2)c(C)c1 (stereo unspecified),2.17%,"0.0326 µM [rising, full curve, poor fit]",
Cc1ccc(N2C(=O)Nc3ccccc3C2(O)C(=O)N2CCN(c3ccccn3)CC2)cc1C (stereo unspecified),34.3%,"14.6 µM [rising, partial curve, poor fit]","14.6 µM [rising, single point]"
Cc1occc1C(=O)N(C)Cc1nc(-c2ccccc2)no1,16.1%,"2.91 µM [rising, single point]",
Cn1c(C(=O)NCCCN2CCCC2=O)cc2c(=O)n(C)c3ccccc3c21,58.2%,"5.17 µM [rising, full curve]","5.8 µM [rising, partial curve]"
COc1ccc(-c2nc(CS(=O)CC(=O)NC3CCCc4ccccc43)c(C)o2)cc1OC (stereo unspecified),58.6%,"14.6 µM [rising, partial curve]","11.6 µM [rising, partial curve]"
COc1ccc(NC(=O)CCNC(=O)Cn2cnc3ccccc3c2=O)cc1OC,-8.12%,,
O=C(NCCS(=O)(=O)N1CCN(c2ccccc2F)CC1)c1ccc(Br)cc1,36.3%,,"29.1 µM [rising, single point]"
CCCCn1nc(C(=O)NCC2COc3ccccc3O2)c2ccccc2c1=O (stereo unspecified),-29.4%,"23.1 µM [falling, partial curve]",
O=c1cc2c(nn1Cc1cccc(Cl)c1)-c1ccccc1CC2,-9.14%,"6.51 µM [rising, single point]",
CCn1c2ccccc2c2cc(CN3CCN(S(=O)(=O)Cc4ccccc4)CC3)ccc21,35.4%,,"18.4 µM [rising, single point]"
Cc1cc(C)n(C2CC(=O)N(c3cc(Cl)cc(Cl)c3)C2=O)n1 (stereo unspecified),6.52%,"1.84 µM [rising, full curve, poor fit]",
COc1ccccc1[C@@H]1C(c2cccc(C)c2)=NN(c2ccccc2)[C@H]1C(=O)N1CCOC1=O,18.3%,"29.1 µM [rising, single point]",
COc1ccccc1/C=C/C(=O)OCC(=O)c1c[nH]c2ccccc12,3.44%,"2.31 µM [rising, partial curve]",

# 5 compounds picked at random from the list so far:
SMILES,cell number change,AC50 [1],AC50 [2]
Cc1ccc(N2C(=O)Nc3ccccc3C2(O)C(=O)N2CCN(c3ccccn3)CC2)cc1C (stereo unspecified),34.3%,"14.6 µM [rising, partial curve, poor fit]","14.6 µM [rising, single point]"
Brc1c(OCCOCCn2cncn2)ccc2ccccc12,314%,"16.4 µM [rising, partial curve]","18.4 µM [rising, partial curve]"
CCCCn1nc(C(=O)NCC2COc3ccccc3O2)c2ccccc2c1=O (stereo unspecified),-29.4%,"23.1 µM [falling, partial curve]",
O=c1cc2c(nn1Cc1cccc(Cl)c1)-c1ccccc1CC2,-9.14%,"6.51 µM [rising, single point]",
COc1ccccc1/C=C/C(=O)OCC(=O)c1c[nH]c2ccccc12,3.44%,"2.31 µM [rising, partial curve]",

# Additional records follow:

SMILES,cell number change,AC50 [1],AC50 [2]
COc1cccc2c1OC1(C)CC2NC(=O)N1 (stereo unspecified),13.1%,"29.1 µM [falling, single point]",
CCCOc1cccc(CN2CCCCC2c2cccnc2)c1 (stereo unspecified),4.49%,"0.13 µM [rising, full curve]","4.61 µM [rising, single point]"
COc1ccc(CN2C(=O)[C@@H]3C(c4ccccc4Cl)=NO[C@@H]3C2=O)cc1,0.39%,"0.731 µM [rising, full curve, poor fit]",
C/C=C/c1ccc(OCCCCn2cncn2)c(OC)c1,-13.7%,"29.1 µM [rising, single point]",
CC(C)(C)OC(=O)N1CCC(c2c(C(=O)NCC3CCN(C4CCCC4)C3)cnn2-c2ccccc2)CC1 (stereo unspecified),2.29%,,
CN(C)c1ccc(NC(=O)CN2C(=O)c3ccccc3C2=O)cc1,-0.587%,"29.1 µM [falling, single point]",
COc1ccccc1CCC(=O)OCC(=O)c1c(N)n(CC(C)C)c(=O)n(C)c1=O,-9.79%,"4.11 µM [falling, full curve]",
O=C(CSc1nc2ncccc2[nH]1)Nc1ccc2c(c1)OCO2,-24%,"20.6 µM [falling, single point]",
Cc1ccc2nc(C(=O)N3CCc4c([nH]c5ccccc45)C3c3ccccn3)cn2c1 (stereo unspecified),25.1%,"0.103 µM [rising, full curve, poor fit]",
COc1ccc(N2CCN(C(=O)C3CC(O)CN3S(=O)(=O)c3ccc([N+](=O)[O-])cc3)CC2)cc1 (stereo unspecified),20%,,
NC(=O)c1cccc2c(=O)oc3ccccc3c12,-3.17%,,
Cc1cc(-n2cnc3c(=O)[nH]cnc32)ccc1N,15.7%,"7.31 µM [rising, partial curve]",
CCN(CC)CCNC(=O)NC(=O)c1ccc(Cl)cc1,16%,"0.58 µM [falling, single point]",
Nc1nc(Nc2ccccc2)nc(C(F)(F)F)n1,,"0.58 µM [falling, single point]",
CC(C)(C)C1CCc2onc(C(=O)Nc3ccc4c(c3)OCO4)c2C1 (stereo unspecified),20%,"1.16 µM [falling, single point]",
O=C(O)c1cc(O)ccc1NC(=O)C(c1ccccc1)c1ccccc1,23.9%,"0.58 µM [rising, single point]",
N#C/C(=C(/O)COC(=O)c1ccc2c(c1)OCCO2)c1nc2ccccc2[nH]1,1.95%,"2.31 µM [falling, single point]",
COc1ccc(NS(=O)(=O)c2ccc(Oc3ncccn3)cc2)cc1,-6.98%,"2.31 µM [rising, full curve]",
COc1ccc(C(=O)NCCc2nc3cc([N+](=O)[O-])ccc3n2C)cc1,17.9%,,"2.31 µM [rising, single point]"
O=C(Nc1ccccc1-c1ccccc1)c1ccccc1,-1.67%,"14.6 µM [falling, single point]",

SMILES,cell number change,AC50 [1],AC50 [2]
CCOC(=O)c1cnc(Nc2ccccc2)nc1C(F)(F)F,-19.3%,,"0.092 µM [falling, full curve, poor fit]"
CCCc1cc(C(=O)NCc2cccnc2)no1,41.5%,,"29.1 µM [rising, single point]"
Cc1c(C(=O)NCCc2ccccc2)oc2ccc(S(=O)(=O)N3CCOCC3)cc12,-39.9%,,"29.1 µM [falling, single point]"
Cc1[nH]c2ccccc2c1C(c1ccccn1)N1CCCC1 (stereo unspecified),56%,,"18.4 µM [rising, partial curve, poor fit]"
CC(=O)Nc1sc(N)nc1-c1ccccc1,,"0.0146 µM [falling, full curve, poor fit]","4.11 µM [rising, partial curve]"
Cc1ccccc1NC(=O)Cc1nc(COC(=O)Cc2ccccc2F)cs1,-11%,,
O=C(Cn1c(=O)oc2cc(S(=O)(=O)N3CCCC3)ccc21)N1CCCC1,-32.2%,,"14.6 µM [falling, partial curve, poor fit]"
Cc1ccccc1-n1nc(C(=O)O)c(C)c(C#N)c1=O,-37.6%,"29.1 µM [falling, single point]","29.1 µM [falling, single point]"
CN(C)S(=O)(=O)c1cccc(NC(=O)COc2cccc3ccccc23)c1,-25.3%,"0.411 µM [rising, partial curve, poor fit]",
CCOC(=O)/C=C1\SCC(=O)N1CC(=O)NC1CCCCC1,17.3%,"1.03 µM [falling, single point]",
CCOC(=O)c1ccc(N2C(=O)C=C(N3CCOCC3)C2=O)cc1,-31.2%,"0.13 µM [falling, full curve, poor fit]","0.13 µM [falling, full curve, poor fit]"
COC(=O)c1ccc(-n2c(C)cc(C(=O)CSc3ccc(NC(C)=O)cc3)c2C)cc1,93.5%,"1.84 µM [falling, partial curve, poor fit]",
CC1(C)Cc2c(sc(NC(=O)C(=O)N3CCCCC3)c2C(N)=O)CO1,-18.6%,"29.1 µM [rising, single point]",
Cc1ccc(C(=O)COC(=O)CCc2nc3ccccc3[nH]c2=O)cc1C,-9.66%,,
O=C(Nc1cccc(C(F)(F)F)c1)c1cc2c(=O)c3ccccc3oc2nc1C(F)(F)F,-24.4%,"8.2 µM [falling, partial curve]",
Cc1cc(=O)oc2cc(OC(C)C(=O)NCC3CCC(C(=O)O)CC3)c(Cl)cc12 (stereo unspecified),-18.5%,"0.146 µM [rising, full curve, poor fit]",
COc1cc2nc(Cl)nc(NCCO)c2cc1OC,35.9%,"20.6 µM [rising, partial curve]","20.6 µM [rising, single point]"
N#CCNC1CC(=O)N(c2ccccc2)C1=O (stereo unspecified),17.9%,"29.1 µM [rising, single point]",
COc1ccc(S(=O)(=O)NCc2ccc(C(=O)N3CCc4ccccc4C3)cc2)cc1,13.4%,"16.4 µM [rising, partial curve]",
